In PMC6679547:
No constants are given. Whether binding was seen depends on the method and setting. In cells and extracts the contact can be indirect. Some binding calls cover weakened binding; strength is not graded here.

Chains of the proteins cited; added tags and fusions are not shown.
UniProt Q9BVL2: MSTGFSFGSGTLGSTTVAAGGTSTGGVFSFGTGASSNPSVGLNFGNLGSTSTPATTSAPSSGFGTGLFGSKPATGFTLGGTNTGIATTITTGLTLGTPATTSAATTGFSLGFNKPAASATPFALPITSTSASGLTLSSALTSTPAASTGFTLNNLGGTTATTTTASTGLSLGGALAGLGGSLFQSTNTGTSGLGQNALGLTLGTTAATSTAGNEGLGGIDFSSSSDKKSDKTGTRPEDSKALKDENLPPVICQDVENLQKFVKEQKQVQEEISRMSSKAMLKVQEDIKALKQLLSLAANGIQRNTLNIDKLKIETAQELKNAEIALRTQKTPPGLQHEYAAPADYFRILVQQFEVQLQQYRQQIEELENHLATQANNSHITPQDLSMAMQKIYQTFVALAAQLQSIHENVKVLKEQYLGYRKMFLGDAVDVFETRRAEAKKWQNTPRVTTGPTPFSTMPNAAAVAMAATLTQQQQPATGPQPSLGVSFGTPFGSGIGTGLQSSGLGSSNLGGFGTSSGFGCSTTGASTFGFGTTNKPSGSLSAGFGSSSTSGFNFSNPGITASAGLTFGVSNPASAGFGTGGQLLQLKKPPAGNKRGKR
UniProt Q8N4C6: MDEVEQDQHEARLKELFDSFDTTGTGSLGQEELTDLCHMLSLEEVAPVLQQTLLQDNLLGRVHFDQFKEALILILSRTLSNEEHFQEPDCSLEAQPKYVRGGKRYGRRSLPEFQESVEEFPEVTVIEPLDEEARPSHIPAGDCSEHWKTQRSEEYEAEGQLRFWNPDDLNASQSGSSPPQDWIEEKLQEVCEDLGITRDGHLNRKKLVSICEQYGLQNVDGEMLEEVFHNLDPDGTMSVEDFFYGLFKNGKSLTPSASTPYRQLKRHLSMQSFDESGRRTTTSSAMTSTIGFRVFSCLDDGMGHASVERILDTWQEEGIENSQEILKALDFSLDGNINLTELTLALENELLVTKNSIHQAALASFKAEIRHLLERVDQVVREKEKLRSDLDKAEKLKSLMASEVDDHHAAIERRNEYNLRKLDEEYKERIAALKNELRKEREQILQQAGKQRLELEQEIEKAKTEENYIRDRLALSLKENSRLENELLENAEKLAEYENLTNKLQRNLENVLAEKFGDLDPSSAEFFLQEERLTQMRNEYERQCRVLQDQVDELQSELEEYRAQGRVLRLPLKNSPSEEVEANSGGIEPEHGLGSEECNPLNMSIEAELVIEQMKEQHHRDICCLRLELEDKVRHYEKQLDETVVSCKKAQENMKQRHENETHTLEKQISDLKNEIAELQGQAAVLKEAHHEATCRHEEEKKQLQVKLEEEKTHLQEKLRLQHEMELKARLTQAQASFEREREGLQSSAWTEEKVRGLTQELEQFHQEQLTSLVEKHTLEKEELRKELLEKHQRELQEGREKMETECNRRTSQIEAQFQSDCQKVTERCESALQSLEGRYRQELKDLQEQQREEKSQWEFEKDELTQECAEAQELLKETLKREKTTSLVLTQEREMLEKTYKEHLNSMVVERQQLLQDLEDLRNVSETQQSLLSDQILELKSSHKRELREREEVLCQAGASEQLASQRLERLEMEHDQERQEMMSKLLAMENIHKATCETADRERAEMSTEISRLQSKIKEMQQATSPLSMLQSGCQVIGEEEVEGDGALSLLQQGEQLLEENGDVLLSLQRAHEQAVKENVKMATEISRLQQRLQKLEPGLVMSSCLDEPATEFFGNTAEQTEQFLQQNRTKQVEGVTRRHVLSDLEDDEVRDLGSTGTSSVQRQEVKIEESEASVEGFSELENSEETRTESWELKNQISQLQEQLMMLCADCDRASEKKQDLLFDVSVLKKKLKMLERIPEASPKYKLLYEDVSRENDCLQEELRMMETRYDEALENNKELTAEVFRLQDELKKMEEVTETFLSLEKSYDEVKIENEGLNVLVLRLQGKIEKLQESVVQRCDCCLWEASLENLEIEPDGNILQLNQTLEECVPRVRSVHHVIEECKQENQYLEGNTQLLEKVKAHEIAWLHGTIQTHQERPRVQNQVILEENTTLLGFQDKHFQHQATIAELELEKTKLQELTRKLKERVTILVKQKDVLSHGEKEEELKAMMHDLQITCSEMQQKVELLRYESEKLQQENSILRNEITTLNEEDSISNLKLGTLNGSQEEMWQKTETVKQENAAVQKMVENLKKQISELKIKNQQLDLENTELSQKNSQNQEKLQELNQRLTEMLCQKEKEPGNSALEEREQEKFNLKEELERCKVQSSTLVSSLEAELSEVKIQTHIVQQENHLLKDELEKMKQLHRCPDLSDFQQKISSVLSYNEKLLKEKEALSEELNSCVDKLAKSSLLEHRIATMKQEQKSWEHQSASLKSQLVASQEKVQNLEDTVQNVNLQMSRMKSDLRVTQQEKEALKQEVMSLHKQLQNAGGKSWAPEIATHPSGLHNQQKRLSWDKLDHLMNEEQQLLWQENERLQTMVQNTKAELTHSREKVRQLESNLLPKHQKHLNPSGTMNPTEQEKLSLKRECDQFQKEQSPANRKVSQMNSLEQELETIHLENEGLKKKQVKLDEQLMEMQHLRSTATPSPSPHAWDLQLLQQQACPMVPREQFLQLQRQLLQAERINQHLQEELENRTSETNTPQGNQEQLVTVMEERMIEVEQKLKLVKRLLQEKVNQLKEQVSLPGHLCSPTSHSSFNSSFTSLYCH

What was measured:
[1] = target: Nucleoporin Nup58 (human (endogenous in HeLa)) (UniProt Q9BVL2); test: co-IP; mitotic HeLa cell extracts precipitated with anti-Nup58 (control: nonspecific rabbit IgG), protein A/G beads, 1 h at 4 °C; lysis and wash buffer 50 mM Tris-HCl pH 7.2, 250 mM NaCl, 0.1% Nonidet P-40, 2 mM EDTA, 10% glycerol; immunoblotting
[2] = target: Nucleoporin Nup58 (human (endogenous in HeLa)) (UniProt Q9BVL2); test: co-IP; interphase HeLa cell extracts precipitated with anti-Nup58 (control: nonspecific rabbit IgG); SDS-PAGE and immunoblotting

Molecule	binding [1]	binding [2]
ninein (from UniProt Q8N4C6 1-2090)	no binding	no binding
SAS-6 (protein, UniProt Q6UVJ0 1-657) MSQVLFHQLVPLQVKCKDCEERRVSIRMSIELQSVSNPVHRKDLVIRLTDDTDPFFLYNLVISEEDFQSLKFQQGLLVDFLAFPQKFIDLLQQCTQEHAKEIPRFLLQLVSPAAILDNSPAFLNVVETNPFKHLTHLSLKLLPGNDVEIKKFLAGCLKCSKEEKLSLMQSLDDATKQLDFTRKTLAEKKQELDKLRNEWASHTAALTNKHSQELTNEKEKALQAQVQYQQQHEQQKKDLEILHQQNIHQLQNRLSELEAANKDLTERKYKGDSTIRELKAKLSGVEEELQRTKQEVLSLRRENSTLDVECHEKEKHVNQLQTKVAVLEQEIKDKDQLVLRTKEAFDTIQEQKVVLEENGEKNQVQLGKLEATIKSLSAELLKANEIIKKLQGDLKTLMGKLKLKNTVTIQQEKLLAEKEEKLQKEQKELQDVGQSLRIKEQEVCKLQEQLEATVKKLEESKQLLKNNEKLITWLNKELNENQLVRKQDVLGPSTTPPAHSSSNTIRSGISPNLNVVDGRLTYPTCGIGYPVSSAFAFQNTFPHSISAKNTSHPGSGTKVQFNLQFTKPNASLGDVQSGATISMPCSTDKENGENVGLESKYLKKREDSIPLRGLSQNLFSNSDHQRDGTLGALHTSSKPTALPSASSAYFPGQLPNS	binds	no binding (condition: interphase HeLa cell extracts)
